From PubChem BioAssay AID2685 (National Center for Advancing Translational Sciences (NCATS), 2010)
The other results are listed elsewhere or left out. The main result of the screen is listed elsewhere. These columns were measured beside it and carry no call. Most of these compounds were active or inconclusive in the main read-out, so they are no random draw. Potencies come from curve fits of mixed quality, noted in brackets.

Assay: qHTS Assay for Lipid Storage Modulators in Drosophila S3 Cells;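 for cell number change: cells counted by Cell Tracker Red CMTPX staining in the red channel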
Conditions: BODIPY lipid droplet fluorescence, 18-24 h; for cell number change: measured here: cell count max response, cells fed with added oleic acid
Procedure, shortened: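 Drosophila S3 cells loaded with oleic acid (400 uM, as added) and compounds at several concentrations; lipid droplets imaged by 488-nm laser-scanning cytometry, 500–530 nm intensity and object ratio to cell channel. Percent activity normalized to 20 uM Triacsin C.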

[1] = measured here: lipid fluorescence (Fed channel) AC50, cells fed with added oleic acid
[2] = measured here: cell number channel AC50, cells fed with added oleic acid

SMILES | AC50 [1] | cell number change | AC50 [2]
Clc1ccc(CSc2nnc(CN3CCOCC3)n2-c2ccccc2)cc1Cl | 29.1 µM [rising, single point] |  | 
Cc1ccc(S(=O)(=O)NNC(=O)c2sc3nc(C)cc(C)c3c2-n2cccc2)cc1 |  | 34% | 0.82 µM [rising, full curve, poor fit]
CCn1cc(/C=C(\NC(=O)c2ccccc2Cl)C(=O)N2CCOCC2)c2ccccc21 | 23.1 µM [falling, single point] | -17.5% | 
COC(=O)CN(c1nc(C)c(Br)c(OC)n1)S(=O)(=O)c1ccc(C)cc1 |  | -28.2% | 
C=CCn1c(=O)c2c(C)c(C)sc2n2c(Nc3ccc(OC)cc3)nnc12 | 0.00461 µM [rising, full curve, poor fit] | 8.05% | 0.00461 µM [rising, full curve, poor fit]
COc1ccc(C(c2nnnn2C(C)C)N2CCN(C(=O)c3ccco3)CC2)cc1 (stereo not given) | 0.0517 µM [falling, full curve] |  | 
Cc1nn(C)c(N)c1[N+](=O)[O-] | 0.517 µM [falling, full curve] | 11.2% | 0.461 µM [falling, full curve]
COC(=O)c1ccc(Sc2ccc(Cl)cc2)c(N)c1 |  | -20% | 
CCn1c(=O)c(C(=O)NNC(=O)c2cccc(Cl)c2)c(O)c2ccccc21 |  | 3.17% | 0.13 µM [falling, full curve, poor fit]
Cc1nc(NCCc2ccc(S(N)(=O)=O)cc2)c2c3c(sc2n1)CCC3 | 1.3 µM [rising, partial curve] | 52.2% | 4.61 µM [rising, partial curve]
Cc1c(OCC(=O)NCc2ccccn2)ccc2c3c(c(=O)oc12)CCCC3 | 6.51 µM [falling, single point] | -6.13% | 
Cc1ccc2c(C)c(C(=O)NCCN3CCCC(O)C3)oc2c1C (stereo not given) | 3.66 µM [rising, single point] | 13.7% | 
CCCc1nc2ccc(NC(C)=O)cc2c(=O)n1Cc1ccccc1Cl |  | -47.2% | 29.1 µM [falling, single point]
O=C(NC1CCCC1)c1ccc(Br)c(S(=O)(=O)N2CCCCC2)c1 | 29.1 µM [rising, single point] | -21.8% | 
COc1ccc(S(=O)(=O)N2CCN(C(=O)CNC(=O)c3ccc4c(c3)OCO4)CC2)cc1 |  | 23% | 
CC(O)Cc1cn(CC(=O)N2CCNCC2)nn1 (stereo not given) | 0.0731 µM [falling, single point] | 5.52% | 
CCOc1ncccc1C(=O)Nc1cccc(-c2nnc3n2CCCCC3)c1 | 6.51 µM [falling, single point] |  | 6.51 µM [falling, single point]
O=C(NC(NCc1ccccn1)(C(F)(F)F)C(F)(F)F)c1ccco1 | 4.61 µM [falling, single point] | 4.82% | 
O=C(CN1C(=O)NC2(CCCCC2)C1=O)N1CCN(S(=O)(=O)c2cccc(F)c2)CC1 | 29.1 µM [rising, single point] | 5.38% | 
Cc1cccc2sc(NNC(=O)c3cc(-c4cccs4)nc4ccccc34)nc12 | 3.26 µM [rising, single point] | 0.43% | 

3 entries drawn at random from those above, as already listed:
SMILES | AC50 [1] | cell number change | AC50 [2]
Cc1ccc(S(=O)(=O)NNC(=O)c2sc3nc(C)cc(C)c3c2-n2cccc2)cc1 |  | 34% | 0.82 µM [rising, full curve, poor fit]
CCOc1ncccc1C(=O)Nc1cccc(-c2nnc3n2CCCCC3)c1 | 6.51 µM [falling, single point] |  | 6.51 µM [falling, single point]
COc1ccc(S(=O)(=O)N2CCN(C(=O)CNC(=O)c3ccc4c(c3)OCO4)CC2)cc1 |  | 23% | 

Remaining list, next part:

SMILES | AC50 [1] | cell number change | AC50 [2]
O=C(NCC1CCCCC1)c1cccc(-c2ccc(O)cc2)c1 | 0.146 µM [rising, full curve] | 5.46% | 
COc1ccc(OCCCC(=O)OCC(=O)c2ccc3c(c2)NC(=O)CO3)cc1 |  | 1.47% | 0.651 µM [falling, single point]
Cc1noc(C)c1S(=O)(=O)NCc1cccc(Cl)c1 |  | -1.46% | 
Cc1ccccc1N(CC(=O)NC(C)(C)C)C(=O)c1ccc(-c2ccccc2)[nH]1 |  | 22.7% | 
CCc1ccc(NC(=O)CCn2c(=O)oc3ccccc32)cc1 | 2.59 µM [rising, partial curve, poor fit] | 8.24% | 
CCN(C(=O)COC(=O)c1[nH]c(=O)[nH]c(=O)c1N)c1ccccc1 | 0.58 µM [falling, full curve] | -16.5% | 
CC(=O)NC(CC(=O)OCc1ccc([N+](=O)[O-])cc1)c1ccccc1 (stereo not given) | 0.58 µM [rising, single point] | 15.8% | 
O=C(Nc1cccc(C(=O)O)c1)/C(=C\C=C\c1ccccc1)NC(=O)c1ccccc1 | 3.66 µM [falling, partial curve, poor fit] | 17.3% | 0.103 µM [falling, full curve, poor fit]
O=S(=O)(NCc1ccc2c(c1)OCO2)c1ccc2c(c1)oc1ccccc12 | 29.1 µM [rising, single point] | 0.119% | 
COc1ccc(S(=O)(=O)Nc2ccc3c(c2)OCCO3)cc1Cl |  | -29.7% | 
Cc1cc(OC(C)C(=O)N/N=C/CC(C)c2ccccc2)ccc1Cl (stereo not given) | 6.51 µM [rising, single point] | 16% | 2.91 µM [rising, single point]
COC(=O)CCCCC1SCC2NC(=O)NC21O (stereo not given) |  | 23% | 
CCOCCn1c(=O)c2c(nc3n2CCCN3CCc2ccccc2)n(C)c1=O | 29.1 µM [falling, single point] | 1.47% | 
CC(=O)Nc1ccc(S(=O)(=O)N2CCN(c3cc(C)nc4ncnn34)CC2)cc1 | 29.1 µM [falling, single point] | -13.7% | 
CCCc1cc(-c2n[nH]c(=S)n2CC)c2ccccc2n1 | 29.1 µM [rising, single point] | 50.8% | 16.4 µM [rising, single point]
Cn1c(SCC(=O)Nc2ccc(Cl)cc2F)nnc1-c1ccco1 | 29.1 µM [falling, single point] |  | 
CCC(Oc1ccccc1)C(=O)Nc1ccccc1N1CCCC1 (stereo not given) | 14.1 µM [rising, partial curve, poor fit] | 13.1% | 
CC(=O)c1csc(CS(=O)(=O)c2ccccn2)n1 | 0.92 µM [falling, full curve] | 13.7% | 
CCCCNC(=O)N1CCN(C(=O)C2CCCO2)CC1 (stereo not given) | 0.259 µM [falling, full curve, poor fit] | -38.1% | 29.1 µM [falling, single point]
